The values that follow come from the supplement of paper PMC8090911.

Each structure is given as a SMILES string. Structures can show the parent of a compound that is named as a salt. Some of the results follow. Many values rest on one well or one pass, so single values are uncertain.

For this assay, the system named is p95-ErbB2-MCF7. Nature of the assay: perinuclear lysosome accumulation (PNLA, size of LAMP2 puncta), robust Z-score vs plate median; higher = more perinuclear lysosome accumulation (reversal of invasive lysosome distribution). To be noted: 5 µM; 24 h.
As for `O=[N+]([O-])O[C@H]1CO[C@H]2[C@@H]1OC[C@H]2O[N+](=O)[O-]` [Isosorbide dinitrate], the perinuclear lysosome accumulation stood at 0.184. Regarding `C=C1CC[C@@]2(O)[C@H]3Cc4ccc(O)c5c4[C@@]2(CCN3CC2CC2)[C@H]1O5` [Nalmefene hydrochloride], the perinuclear lysosome accumulation was -0.0853. For `O=C(CCCN1CCC2(CC1)C(=O)NCN2c1ccccc1)c1ccc(F)cc1` [Spiperone], the perinuclear lysosome accumulation was -1.33. The same measure for `CC(N)C(O)c1ccccc1` (stereo not drawn) [Phenylpropanolamine hydrochloride]: -0.691; for `NCC1(CC(=O)O)CCCCC1` [Gabapentin]: -3.3. For the compound `O=c1[nH]oc2c1CCNC2` [THIP Hydrochloride], the perinuclear lysosome accumulation is -1.78.

Take `C[C@@H]1C[C@@H]([C@H](O)CC2CC(=O)NC(=O)C2)C(=O)[C@@H](C)C1` [Cycloheximide]: the perinuclear lysosome accumulation is -1.79. On to `Cc1cc(C(C#N)c2ccc(Cl)cc2)c(Cl)cc1NC(=O)c1cc(I)cc(I)c1O` (stereo not drawn) [Closantel], for which the perinuclear lysosome accumulation was determined as 1.06. The same measure for `CC[C@@H](CO)NC(=O)[C@@H]1C=C2c3cccc4[nH]cc(c34)C[C@H]2N(C)C1` [Methylergometrine maleate]: -0.252. The figure for `CCC(=O)O[C@H]1CC[C@H]2[C@@H]3CCC4=CC(=O)CC[C@]4(C)[C@H]3CC[C@]12C` [Testosterone propionate] is -3.52; for `COc1ccc(OC)c(C(O)C(C)N)c1` (stereo not drawn) [Methoxamine hydrochloride] it is -1.07. On to `O=C(CCCN1CCC(n2c(=O)[nH]c3ccccc32)CC1)c1ccc(F)cc1` [Benperidol], for which the perinuclear lysosome accumulation amounted to 0.348. The figure for `C=CCC1(CC(C)C)C(=O)NC(=O)NC1=O` [Butalbital] is -0.713; for `COc1ccc(C(=O)OC2C[C@H]3CC[C@@H](C2)N3C)cc1OC` (stereo partly drawn) [Convolamine hydrochloride] it is 0.549; for `C[C@@H]1CN([C@H]2CC[C@](C#N)(c3ccc(F)cc3)CC2)CC[C@]1(C(=O)O)c1ccccc1` [Levocabastine hydrochloride] it is -0.62. Take `C[N+]1(C)CCCC(OC(=O)C(O)(c2ccccc2)c2ccccc2)C1` (stereo not drawn) [Mepenzolate bromide]: the perinuclear lysosome accumulation is -0.397. Take `OC(c1ccccc1)(c1ccccc1)C1CCNCC1` [Azacyclonol]: the perinuclear lysosome accumulation came out at 1.11. `C[C@@]12C(=O)OC(=O)[C@]1(C)[C@H]1CC[C@@H]2O1` [Cantharidin]: the perinuclear lysosome accumulation is -0.254. Turning to `CCC1(C)CC(=O)NC(=O)C1` [Bemegride], the perinuclear lysosome accumulation was -2.46.

Take `CCCC(C)(COC(N)=O)COC(=O)NC(C)C` (stereo not drawn) [Carisoprodol]: the perinuclear lysosome accumulation was -0.914.

With `C=C1C[C@@H]2[C@H](CC[C@]3(C)C(=O)CC[C@@H]23)[C@@]2(C)C=CC(=O)C=C12` [Exemestane], the perinuclear lysosome accumulation was -1.28. Regarding `CC(=O)[C@H]1CC[C@H]2[C@@H]3CC[C@H]4C[C@H](O)CC[C@]4(C)[C@H]3C(=O)C[C@]12C` [Alfaxalone], the perinuclear lysosome accumulation is -0.446. For `CN1C(=O)CCS(=O)(=O)C1c1ccc(Cl)cc1` (stereo not drawn) [Chlormezanone], the perinuclear lysosome accumulation is -0.0196. Consider `O=P1(N(CCCl)CCCl)NCCCO1` (stereo not drawn) [Cyclophosphamide], for which the perinuclear lysosome accumulation was -1.92.

As for `C[C@]12COC(=O)C[C@@H]1CC[C@@H]1[C@@H]2CC[C@@]2(C)[C@H]1CC[C@]2(C)O` [Oxandrolone], the perinuclear lysosome accumulation is -1.38e-05.

As to `C[C@]12CCC(=O)C(O)=C1CC[C@@H]1[C@@H]2CC[C@]2(C)C(=O)CC[C@@H]12` [Formestane], the perinuclear lysosome accumulation came out at 1.19. `CNC(C)(C)Cc1ccccc1` [Mephentermine hemisulfate]: the perinuclear lysosome accumulation was -0.492. The same measure for `CCC1=C[C@H]2CN3CCc4c([nH]c5ccccc45)[C@](C(=O)OC)(C2)[C@H]13` [Catharanthine]: 0.125. `CN1[C@@H]2CC[C@H]1C[C@@H](OC(=O)C(CO)c1ccccc1)C2` (stereo partly drawn) [Atropine sulfate monohydrate]: the perinuclear lysosome accumulation is -0.178. The same measure for `CC(C)C[C@H]1C(=O)N2CCC[C@H]2[C@]2(O)O[C@](NC(=O)[C@@H]3C=C4c5cccc6[nH]c(Br)c(c56)C[C@H]4N(C)C3)(C(C)C)C(=O)N12` [Bromocryptine mesylate]: -0.247; for `CC(C)(N)Cc1ccccc1` [Phentermine hydrochloride]: 0.38; for `CN1CCc2cc3c(cc2C1O)OCO3` (stereo not drawn) [Hydrastinine hydrochloride]: 0.814. For `CCNCC(O)c1cccc(O)c1` (stereo not drawn) [Etilefrine hydrochloride], the perinuclear lysosome accumulation was -0.0215.

Consider `COc1ccc(C(CN(C)C)C2(O)CCCCC2)cc1` (stereo not drawn) [Venlafaxine], for which the perinuclear lysosome accumulation was determined as 0.436. The figure for `CN(C)C(=O)Oc1cccc([N+](C)(C)C)c1` [Neostigmine bromide] is -0.415; for `CNC(=O)Oc1ccc2c(c1)[C@]1(C)CCN(C)[C@@H]1N2C` [Eserine sulfate, physostigmine sulfate] it is 0.318; for `C[C@@H]1O[C@@H](O[C@@H]2C=C3CC[C@@H]4[C@H](CC[C@]5(C)[C@@H](c6ccc(=O)oc6)CC[C@]45O)[C@@]3(C)CC2)[C@H](O)[C@H](O)[C@H]1O` [Proscillaridin A] it is 1.38.

For `C#CCN(C)[C@H](C)Cc1ccccc1` [Selegiline hydrochloride], the perinuclear lysosome accumulation is -0.819. Consider `C[C@]12CC[C@@H](O)C[C@H]1CC[C@@H]1[C@@H]2CC[C@]2(C)C(=O)CC[C@@H]12` [3-alpha-Hydroxy-5-beta-androstan-17-one], for which the perinuclear lysosome accumulation turned out to be 0.0764. As for `O=c1[nH]c2ccccc2n1C1CCN(CCCC(c2ccc(F)cc2)c2ccc(F)cc2)CC1` [Pimozide], the perinuclear lysosome accumulation is 0.121. For the compound `NCCC(O)C(=O)NC1CC(N)C(OC2OC(CN)C(O)[C@H](O)[C@@H]2N)[C@H](OC2O[C@H](CO)[C@@H](O)[C@@H]2O)[C@@H]1O` (stereo partly drawn) [Butirosin disulfate salt], the perinuclear lysosome accumulation is -0.623. As to `CC1OC(OC2/C=C/C=C/C=C/C=C/CC/C=C/C=C/[C@H](C)[C@@H](O)[C@@H](C)[C@H](C)OC(=O)CC(O)CC(O)CC(O)CCC(O)C(O)C[C@]3(O)CC(O)C(C(=O)O)C(C2)O3)C(O)C(N)C1O` (stereo partly drawn) [Nystatine], the perinuclear lysosome accumulation was -0.0219. The figure for `NCCCNCCSP(=O)(O)O` [Amifostine] is -2.54.
